No constants are given. Whether binding was seen depends on the method and setting. Binding seen in cells or lysates may run through a third protein. Some results given as binding are weak or reduced against the parent protein; the word gives no strength. Where a sequence is shown, tags or fusion partners need not be part of it.

Sequences of proteins named here, by UniProt entry; tags and fusion partners are left off. A change or cut given only in a name is not applied to a line headed by its entry. A line that says so, or that is headed by a name, gives the form on record, which may keep a tag or linker. Residues count along the entry.
LRP6N-IgG (Fc-tagged LRP6 extracellular domain) (O75581, residues 20-1370): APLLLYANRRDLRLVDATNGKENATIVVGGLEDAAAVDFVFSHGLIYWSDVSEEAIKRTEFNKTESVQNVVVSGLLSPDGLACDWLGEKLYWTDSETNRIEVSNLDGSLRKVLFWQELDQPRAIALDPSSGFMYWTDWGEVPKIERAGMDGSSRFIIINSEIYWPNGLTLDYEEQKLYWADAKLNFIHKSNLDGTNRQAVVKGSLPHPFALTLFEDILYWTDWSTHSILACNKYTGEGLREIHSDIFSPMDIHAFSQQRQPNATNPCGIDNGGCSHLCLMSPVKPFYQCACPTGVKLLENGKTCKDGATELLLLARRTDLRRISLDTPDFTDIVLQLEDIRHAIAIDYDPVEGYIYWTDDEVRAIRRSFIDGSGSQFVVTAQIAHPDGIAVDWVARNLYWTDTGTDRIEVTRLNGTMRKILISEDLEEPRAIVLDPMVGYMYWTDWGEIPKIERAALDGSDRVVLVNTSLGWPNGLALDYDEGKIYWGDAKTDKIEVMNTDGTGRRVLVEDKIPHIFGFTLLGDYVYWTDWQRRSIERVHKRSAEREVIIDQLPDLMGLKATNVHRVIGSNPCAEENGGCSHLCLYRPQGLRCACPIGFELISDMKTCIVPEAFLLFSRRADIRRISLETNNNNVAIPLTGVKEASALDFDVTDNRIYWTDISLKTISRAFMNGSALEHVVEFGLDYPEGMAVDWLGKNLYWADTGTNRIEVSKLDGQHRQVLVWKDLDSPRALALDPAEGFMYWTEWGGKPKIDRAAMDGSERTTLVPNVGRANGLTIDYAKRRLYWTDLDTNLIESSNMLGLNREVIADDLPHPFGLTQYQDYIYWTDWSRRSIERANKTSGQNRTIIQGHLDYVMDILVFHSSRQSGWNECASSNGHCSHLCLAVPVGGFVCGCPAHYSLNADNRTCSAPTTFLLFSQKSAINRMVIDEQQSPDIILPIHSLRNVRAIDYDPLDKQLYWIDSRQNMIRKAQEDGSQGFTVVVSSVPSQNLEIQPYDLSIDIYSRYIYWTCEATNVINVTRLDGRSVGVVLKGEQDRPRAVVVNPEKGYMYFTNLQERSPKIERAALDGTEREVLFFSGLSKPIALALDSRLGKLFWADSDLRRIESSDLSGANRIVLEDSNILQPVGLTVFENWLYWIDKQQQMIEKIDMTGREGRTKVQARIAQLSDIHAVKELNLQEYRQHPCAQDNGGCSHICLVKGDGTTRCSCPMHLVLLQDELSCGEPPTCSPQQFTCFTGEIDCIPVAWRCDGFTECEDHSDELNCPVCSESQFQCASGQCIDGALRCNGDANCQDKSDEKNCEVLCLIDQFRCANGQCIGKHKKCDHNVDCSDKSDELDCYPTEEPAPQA
VSV-G-tagged full-length LRP6 (O75581, form named): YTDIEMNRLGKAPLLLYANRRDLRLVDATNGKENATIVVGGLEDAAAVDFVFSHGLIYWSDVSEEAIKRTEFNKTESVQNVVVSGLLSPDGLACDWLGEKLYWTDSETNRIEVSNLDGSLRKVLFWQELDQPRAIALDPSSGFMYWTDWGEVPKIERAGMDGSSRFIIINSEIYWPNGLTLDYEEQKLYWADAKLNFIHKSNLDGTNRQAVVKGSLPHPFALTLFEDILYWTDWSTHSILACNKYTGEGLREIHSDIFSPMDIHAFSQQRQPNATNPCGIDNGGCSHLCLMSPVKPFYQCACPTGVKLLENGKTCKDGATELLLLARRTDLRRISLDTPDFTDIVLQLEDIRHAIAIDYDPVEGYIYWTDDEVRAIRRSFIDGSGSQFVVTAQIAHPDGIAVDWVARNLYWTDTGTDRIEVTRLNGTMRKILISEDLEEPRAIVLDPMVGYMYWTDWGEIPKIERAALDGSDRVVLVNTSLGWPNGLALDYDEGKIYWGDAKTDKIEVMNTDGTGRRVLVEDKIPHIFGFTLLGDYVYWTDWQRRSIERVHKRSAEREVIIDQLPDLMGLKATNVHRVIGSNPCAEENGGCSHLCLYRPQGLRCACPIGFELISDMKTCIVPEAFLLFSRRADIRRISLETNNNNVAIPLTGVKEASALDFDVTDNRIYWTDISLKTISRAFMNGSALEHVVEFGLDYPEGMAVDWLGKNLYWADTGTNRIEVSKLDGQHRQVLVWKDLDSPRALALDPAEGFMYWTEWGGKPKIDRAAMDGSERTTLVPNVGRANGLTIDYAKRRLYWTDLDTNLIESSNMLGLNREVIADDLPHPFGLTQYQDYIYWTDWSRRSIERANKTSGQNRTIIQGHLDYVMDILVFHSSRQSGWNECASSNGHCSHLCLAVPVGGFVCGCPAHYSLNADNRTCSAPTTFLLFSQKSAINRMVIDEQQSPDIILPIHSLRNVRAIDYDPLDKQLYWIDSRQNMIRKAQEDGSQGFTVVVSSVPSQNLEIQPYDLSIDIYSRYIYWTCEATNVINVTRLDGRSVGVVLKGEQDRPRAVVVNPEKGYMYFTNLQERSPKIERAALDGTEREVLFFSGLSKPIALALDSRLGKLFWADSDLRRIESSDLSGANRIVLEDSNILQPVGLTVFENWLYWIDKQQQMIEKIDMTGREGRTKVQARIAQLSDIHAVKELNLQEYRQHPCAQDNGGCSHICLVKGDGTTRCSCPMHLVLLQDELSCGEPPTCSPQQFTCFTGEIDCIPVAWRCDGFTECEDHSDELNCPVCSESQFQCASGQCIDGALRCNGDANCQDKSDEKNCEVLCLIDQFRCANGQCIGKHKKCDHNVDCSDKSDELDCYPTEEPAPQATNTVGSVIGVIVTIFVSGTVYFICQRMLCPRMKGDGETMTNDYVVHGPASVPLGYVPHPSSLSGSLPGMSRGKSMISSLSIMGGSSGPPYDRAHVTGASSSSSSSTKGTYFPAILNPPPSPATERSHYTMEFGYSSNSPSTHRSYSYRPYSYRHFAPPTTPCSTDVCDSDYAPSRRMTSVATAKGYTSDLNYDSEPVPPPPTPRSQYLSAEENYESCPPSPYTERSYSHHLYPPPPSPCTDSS

The values that follow come from patent EP4497755A1 (Asociación Centro de Investigación Cooperativa en …, dated 2025).

In assay [1] the target is VSV-G-tagged full-length LRP6 (UniProt O75581). The assay is described as follows: co-immunoprecipitation from HEK 293 cell extracts, full-length VSV-G-tagged LRP6.
Assay [2] deals with T1, mFZD8-CRD-IgG (mouse FZD8 extracellular cysteine-rich domain fused to Fc) (mouse) (UniProt Q61091).
T1 sequence (looked up): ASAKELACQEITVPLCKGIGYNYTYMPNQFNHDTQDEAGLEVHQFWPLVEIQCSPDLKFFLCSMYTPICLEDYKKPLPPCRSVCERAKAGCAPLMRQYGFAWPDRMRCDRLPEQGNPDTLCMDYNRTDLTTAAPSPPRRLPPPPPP
The assay is described as follows: protein A/G pull-down of FZD8-CRD-Fc from PC3 cell extracts, western blot. On the technique in general: A western blot detects proteins with antibodies after separation by electrophoresis.

Assay [3] addresses LRP6N-IgG (Fc-tagged LRP6 extracellular domain) (UniProt O75581). The assay is described as follows: protein A/G pull-down of LRP6N-Fc from HEK 293 cell extracts, western blot.
The target is the same in assay [4]. The assay is described as follows: protein A/G pull-down of LRP6N-Fc from PC3 cell extracts, western blot.

As for “PA-tagged human Wnt-11 (from UniProt O96014 25-354) (ligand)”, in assay [1], the binding result was “binds”.

B1: PA-tagged Wnt-11m (Wnt-11 delta 101-108) (ligand, human)
chain: GVAMPGAEDDVVIKWLALSKTPSALALNQTQHCKQLEGLVSAQVQLCRSNLELMHTVVHAAREVMKACRRAFADMRWNCSSIELAPNYRESAFVYALSAAAISHAIARACTSGDLPGCSCGPVPGEPPGPGNRWGGCADNLSYGLLMGAKFSDAPMKVKKTGSQANKLMRLHNSEVGRQALRASLEMKCKCHGVSGSCSIRTCWKGLQELQDVAADLKTRYLSATKVVHRPMGTRKHLVPKDLDIRPVKDSELVYLQSSPDFCMKNEKVGSHGTQDRQCNKTSNGSDSCDLMCCGRGYNPYTDRVVERCHCKYHWCCYVTCRRCERTVERYVCK
Regarding B1, the binding result in assay [2], in assay [3] and in assay [1] was “binds” in each case.

B2: PA-tagged human Wnt-11 (ligand)
chain: GVAMPGAEDDVVIKWLALSKTPSALALNQTQHCKQLEGLVSAQVQLCRSNLELMHTVVHAAREVMKACRRAFADMRWNCSSIELAPNYLLDLERGTRESAFVYALSAAAISHAIARACTSGDLPGCSCGPVPGEPPGPGNRWGGCADNLSYGLLMGAKFSDAPMKVKKTGSQANKLMRLHNSEVGRQALRASLEMKCKCHGVSGSCSIRTCWKGLQELQDVAADLKTRYLSATKVVHRPMGTRKHLVPKDLDIRPVKDSELVYLQSSPDFCMKNEKVGSHGTQDRQCNKTSNGSDSCDLMCCGRGYNPYTDRVVERCHCKYHWCCYVTCRRCERTVERYVCK
On to B2, for which the binding result in assay [2] and in assay [3] was “binds” throughout.

B3: human Wnt-11 (wild-type, untagged) (ligand, UniProt O96014 25-354, looked up)
chain: IKWLALSKTPSALALNQTQHCKQLEGLVSAQVQLCRSNLELMHTVVHAAREVMKACRRAFADMRWNCSSIELAPNYLLDLERGTRESAFVYALSAAAISHAIARACTSGDLPGCSCGPVPGEPPGPGNRWGGCADNLSYGLLMGAKFSDAPMKVKKTGSQANKLMRLHNSEVGRQALRASLEMKCKCHGVSGSCSIRTCWKGLQELQDVAADLKTRYLSATKVVHRPMGTRKHLVPKDLDIRPVKDSELVYLQSSPDFCMKNEKVGSHGTQDRQCNKTSNGSDSCDLMCCGRGYNPYTDRVVERCHCKYHWCCYVTCRRCERTVERYVCK
As to B3, the binding entry in assay [4] is “binds”.

B4: Wnt-11 antibody epitope deletion mutant Wnt-11m (Wnt-11 delta 101-108, untagged) (ligand, human, UniProt O96014 25-354, looked up)
chain: IKWLALSKTPSALALNQTQHCKQLEGLVSAQVQLCRSNLELMHTVVHAAREVMKACRRAFADMRWNCSSIELAPNYRESAFVYALSAAAISHAIARACTSGDLPGCSCGPVPGEPPGPGNRWGGCADNLSYGLLMGAKFSDAPMKVKKTGSQANKLMRLHNSEVGRQALRASLEMKCKCHGVSGSCSIRTCWKGLQELQDVAADLKTRYLSATKVVHRPMGTRKHLVPKDLDIRPVKDSELVYLQSSPDFCMKNEKVGSHGTQDRQCNKTSNGSDSCDLMCCGRGYNPYTDRVVERCHCKYHWCCYVTCRRCERTVERYVCK
On to B4, for which the binding entry in assay [4] is listed as “binds”.
